From PubChem BioAssay AID504834 (National Center for Advancing Translational Sciences (NCATS), 2011)
Out of some 320,000 compounds screened, about 22,000 (6.9%) were called active. The inconclusive results got no clear call from the source; some entries with a clear call stand among them for comparison. The call rests on the fitted dose curve; in most records, active means well fitted inhibition curve with a large enough effect; inconclusive means small, poorly fitted or top-dose-only effect, or another doubt; inactive means no such curve, though single readings can be large or run the other way. Potencies beside an inconclusive call are fits to weak or partial responses and may not hold up.

Experiment: Primary qHTS for delayed death inhibitors of the malarial parasite plastid, 96 hour incubation
Conditions: P. falciparum luciferase reporter growth; series mostly up to 28.7 µM; activity change, negative = inhibition: at the top concentration
In short: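 Two parasite generations (96 h, 37 C, 5% CO2) of compound exposure in infected erythrocytes (0.05% parasitemia, 2% hematocrit). Luciferase-reporter P. falciparum; decreased luminescence indicates inhibited growth, aimed at apicoplast-acting delayed death.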
On the % scale 0 is the no-effect control and ±100 the full control effect; potency means the concentration at half of the fitted maximal effect.

Q: Which “activity change, negative = inhibition” value does the source give for O=C(NCCCN1CCOCC1)C(=O)NCCc1ccccc1 here?
A: inactive: 3.58%

Q: With COc1ccc(/C=N/NC(=O)CN2CCSCC2)cc1C as the compound, how does the “activity change, negative = inhibition” value read?
A: inactive: 6.79%

Q: For COc1ccccc1N1CCN(C2CCN(S(=O)(=O)c3ccc4ccccc4c3)CC2)CC1, which Potency is on record?
A: inconclusive: 7.38 µM [inhibitor, partial curve, poor fit]

Q: With C=CCSC1=NNC(c2ccc(C(C)(C)C)cc2)=NN1 as the compound, how does the “activity change, negative = inhibition” value read?
A: inactive: 19.8%

Q: Which Potency does the source give for COC(=O)C1=C(C)NC(=O)NC1c1cn(-c2ccccc2)nc1-c1cccs1 (stereo not drawn) here?
A: inconclusive: 18.5 µM [inhibitor, single point]

Q: With COc1cc([N+](=O)[O-])ccc1NC(=O)CSc1n[nH]c(C(C)C)n1 as the compound, how does the Potency read?
A: inconclusive: 16.5 µM [inhibitor, single point]

Q: With COC(=O)C1=CN(CCOC23CC4CC(CC(C4)C2)C3)C=C(C(=O)OC)C1c1ccsc1 as the compound, how does the Potency read?
A: inconclusive: 8.28 µM [inhibitor, partial curve, poor fit]

Q: Which Potency does the source give for Oc1ccc(-n2nnnc2SCc2c(F)cccc2Cl)cc1 here?
A: inconclusive: 18.5 µM [inhibitor, single point]

Q: Which Potency does the source give for Nc1ccc2ccc3cccc[n+]3c2c1 here?
A: inconclusive: 0.0738 µM [inhibitor, full curve, poor fit]

Q: Which Potency does the source give for Cc1ccc(NC(=S)N(CCN(C)C)C(C)c2ccco2)cc1Cl (stereo not drawn) here?
A: inconclusive: 11.7 µM [inhibitor, single point]

Q: With COc1ccccc1-c1cc(C(F)(F)F)nc(S(=O)(=O)CCCC(=O)Nc2cc(C)on2)n1 as the compound, how does the Potency read?
A: active: 1.85 µM

Q: Which Potency does the source give for CC(=O)Nc1ccc(NC(=O)CSc2nnc(-c3ccco3)o2)cc1 here?
A: inconclusive: 7.38 µM [inhibitor, partial curve, poor fit]

Q: With COCc1ccc(CN2CCCC(CO)(Cc3ccccc3)C2)o1 (stereo not drawn) as the compound, how does the Potency read?
A: inconclusive: 18.5 µM [inhibitor, single point]

Q: Which Potency does the source give for CCCCCCn1c(SCC(=O)Nc2cc(C)on2)nc2ccccc2c1=O here?
A: active: 6.57 µM

Q: Which Potency does the source give for COc1cccc(NC(=O)NC2CCN(Cc3nnnn3Cc3ccc4c(c3)OCO4)CC2)c1 here?
A: inconclusive: 10.4 µM [inhibitor, partial curve, poor fit]

Q: Which “activity change, negative = inhibition” value does the source give for CC1CCC2(CC1)OCC1(CCC3(COC4(CCC(C)CC4)OC3)C1=O)CO2 (stereo not drawn) here?
A: inactive: 29.6%

Q: For CC(C)c1ccc(OCC(=O)N(Cc2ccccc2)c2ccccn2)cc1, which Potency is on record?
A: inconclusive: 10.4 µM [inhibitor, single point]

Q: For Cc1ccc(C2(O)CCN3CCCCC32)cc1 (stereo not drawn), which Potency is on record?
A: inconclusive: 4.15 µM [inhibitor, full curve, poor fit]

Q: Which Potency does the source give for COc1ccc(CCNC(=O)C(Sc2ccccn2)c2ccccc2)cc1OC (stereo not drawn) here?
A: inconclusive: 18.5 µM [inhibitor, single point]

Q: With O=C(CNC(=O)Cn1ccc2ccccc2c1=O)NCCCN1CCN(c2cccc(Cl)c2)CC1 as the compound, how does the Potency read?
A: inconclusive: 0.0329 µM [inhibitor, full curve, poor fit]

Q: With CC(=O)N1c2ccccc2N(Cc2ccc(C)cc2C)C(=O)C1(C)C as the compound, how does the Potency read?
A: active: 1.65 µM

Q: Which Potency does the source give for CCOc1nc(NCc2ccco2)nc(Nc2ccccc2F)n1 here?
A: inconclusive: 1.31 µM [inhibitor, full curve, poor fit]

Q: For CN(Cc1ccccc1)C(=O)c1cc(S(=O)(=O)N2CCOCC2)cn1C, which Potency is on record?
A: inconclusive: 2.62 µM [inhibitor, full curve, poor fit]

Q: With O=C(Nc1nc(N2C(=O)c3ccccc3C2=O)n(-c2ccccc2)n1)c1ccc(F)cc1 as the compound, how does the “activity change, negative = inhibition” value read?
A: inactive: 130%

Q: With CC(/C=C/c1ccc2c(c1)OCO2)=N/NC(=O)COc1ccc(C)cc1 as the compound, how does the Potency read?
A: inconclusive: 16.5 µM [inhibitor, single point]

Q: Which Potency does the source give for COc1cc(OC)c(OC)cc1CN1CCc2ccccc2C1 here?
A: inconclusive: 18.5 µM [inhibitor, single point]

Q: For O=C(NCCc1ccc(F)cc1)Nc1ccccc1, which Potency is on record?
A: inconclusive: 18.5 µM [inhibitor, single point]

Q: Which Potency does the source give for Cc1ccc(C(=O)N/C(=C/c2cccnc2)C(=O)O)cc1 here?
A: inconclusive: 18.5 µM [inhibitor, partial curve, poor fit]

Q: With COc1ccc(-n2c(-c3ccc(Cl)cc3)c[n+]3c2CCc2ccccc2-3)cc1 as the compound, how does the Potency read?
A: inconclusive: 0.262 µM [inhibitor, full curve, poor fit]

Q: With C=CCNC(=S)N1CCOCC1 as the compound, how does the Potency read?
A: inconclusive: 2.33 µM [inhibitor, full curve, poor fit]

Q: For Cc1ccc(N2CN=c3s/c(=C\c4ccccn4)c(=O)n3C2)cc1, which Potency is on record?
A: inconclusive: 18.5 µM [inhibitor, single point]

Q: With CN(c1ccccc1C(=O)Nc1ccc2c(c1)OCCO2)S(C)(=O)=O as the compound, how does the “activity change, negative = inhibition” value read?
A: inactive: 131%

Q: Which Potency does the source give for CN1C(CCl)Nc2cc(Cl)c(S(N)(=O)=O)cc2S1(=O)=O (stereo not drawn) here?
A: active: 12 µM

Q: Which “activity change, negative = inhibition” value does the source give for CNC(=S)Nc1ccc(Cc2ccncc2)cc1 here?
A: inactive: 16.1%

Q: With CCOc1ccc(N(C)S(=O)(=O)c2cnc[nH]2)cc1 as the compound, how does the “activity change, negative = inhibition” value read?
A: inactive: 0.69%

Q: For Cc1cc(C)c(S(=O)(=O)N2CCN(c3ccc([N+](=O)[O-])c(NCc4ccco4)c3)CC2)c(C)c1, which Potency is on record?
A: active: 3.7 µM

Q: Which Potency does the source give for Cc1nonc1NC(=O)OCCN1CCOC1=O here?
A: active: 6.57 µM

Q: For Cc1cc(N2CC(C(=O)NCc3cccnc3)CC2=O)ccc1C(C)C (stereo not drawn), which Potency is on record?
A: inconclusive: 10.4 µM [inhibitor, partial curve]

Q: With CCOC(=O)C1=C(C)N=c2s/c(=C/c3ccc(OCC(=O)O)cc3)c(=O)n2C1c1ccc(F)cc1 (stereo not drawn) as the compound, how does the Potency read?
A: inconclusive: 3.29 µM [inhibitor, full curve]

Q: For CNC(=O)C(=O)NCC1OCCCN1S(=O)(=O)c1ccc2c(c1)OCCO2 (stereo not drawn), which Potency is on record?
A: inconclusive: 0.0026 µM [inhibitor, full curve, poor fit]

Q: Which Potency does the source give for O=C1CN(C(=O)COC(=O)c2ccccc2NC(=O)c2ccco2)c2ccccc2N1 here?
A: active: 13.1 µM

Q: With CCOC(=O)[C@H]1[C@H]2COc3cc(OC)ccc3[C@@H]2N2C(=O)c3cc(F)c(F)cc3NC(=O)[C@@]12C as the compound, how does the Potency read?
A: active: 13.1 µM

Q: Which Potency does the source give for Oc1ccccc1-c1nc(N2CCCC2)c2ccccc2n1 here?
A: active: 4.15 µM

Q: With O=C(/C=C/c1ccc(N2CCCCC2)c([N+](=O)[O-])c1)c1ccc(O)cc1 as the compound, how does the Potency read?
A: inconclusive: 10.4 µM [inhibitor, single point]

Q: Which “activity change, negative = inhibition” value does the source give for NC(=O)NOCc1cccc(Cl)c1 here?
A: inactive: 16.7%

Q: With COCc1cc(=O)[nH]c(SCCS(=O)(=O)c2ccc(C)cc2)n1 as the compound, how does the “activity change, negative = inhibition” value read?
A: inactive: -2.06%

Q: Which Potency does the source give for Cc1cc(C)c(CSc2ncnc3nc[nH]c23)c(C)c1 here?
A: inconclusive: 4.15 µM [inhibitor, partial curve]

Q: Which Potency does the source give for CNc1ccc(Cl)nn1 here?
A: inconclusive: 4.15 µM [inhibitor, full curve, poor fit]

Q: For Cc1c2cnn(CC(=O)N3CCC4(CC3)OCCO4)c(=O)c2c(C)n1Cc1ccccc1F, which Potency is on record?
A: active: 0.0104 µM

Q: Which Potency does the source give for O=C1Nc2ccc(Br)cc2C1=Nc1cccnc1 here?
A: inconclusive: 18.5 µM [inhibitor, single point]

Q: With CN1C/C(=C/c2cccnc2)C(=O)/C(=C/c2cccnc2)C1 as the compound, how does the Potency read?
A: inconclusive: 18.5 µM [inhibitor, single point]

Q: Which Potency does the source give for COc1cc([C@@H]2Oc3cc(C4Oc5cc(O)cc(O)c5C(=O)[C@H]4O)ccc3O[C@H]2CO)ccc1O (stereo partly drawn) here?
A: active: 13.1 µM

Q: Which “activity change, negative = inhibition” value does the source give for COC(=O)C1=C(c2cccc(Cl)c2)C[C@@H]2CC[C@H]1N2C(=O)NCC1CC1 here?
A: inactive: -11.6%

Q: For CC(C)CCNC(=O)c1ccc(C2SCC(=O)N2Cc2ccco2)cc1 (stereo not drawn), which “activity change, negative = inhibition” value is on record?
A: inactive: -62.8%

Q: With CCN(CC)S(=O)(=O)c1cccc(C(=O)N/N=C(\C)c2ccc(O)cc2O)c1 as the compound, how does the Potency read?
A: inconclusive: 18.5 µM [inhibitor, single point]

Q: With O=C(/C(C=Nc1ccc(Br)cc1)=C(/O)c1ccco1)C(F)(F)F as the compound, how does the Potency read?
A: active: 2.94 µM

Q: Which Potency does the source give for CCc1ccc(-n2c(SCc3cc(=O)n4cc(Br)ccc4n3)nc3[nH]ncc3c2=O)cc1 here?
A: inconclusive: 11.7 µM [inhibitor, partial curve, poor fit]

Q: Which Potency does the source give for COC(=O)c1ccsc1NC(=O)CN1CCN(Cc2ccc3c(c2)OCO3)CC1 here?
A: inconclusive: 4.15 µM [inhibitor, partial curve, poor fit]

Q: With O=C(O)c1nn(-c2cccc(Cl)c2)c(=O)cc1O as the compound, how does the “activity change, negative = inhibition” value read?
A: inactive: 12.2%

Q: For CCC(=O)N1CCN(c2cc(N3CCN(C)CC3)c(F)cc2[N+](=O)[O-])CC1, which Potency is on record?
A: inconclusive: 18.5 µM [inhibitor, single point]

Q: Which Potency does the source give for Cc1ccc(C(=O)NC2CC3CCCC(C2)N3Cc2ccccc2)cc1 (stereo not drawn) here?
A: inconclusive: 10.4 µM [inhibitor, single point]

Q: For NCCCCCc1nnc(SCC(N)=O)o1, which “activity change, negative = inhibition” value is on record?
A: inactive: 45.4%

Q: With CC/C(=N\Nc1ccccc1)c1c(O)[nH]c(=O)[nH]c1=O as the compound, how does the “activity change, negative = inhibition” value read?
A: inactive: -4.8%

Q: Which “activity change, negative = inhibition” value does the source give for CC1=NN(C(N)=S)C(=O)C1N=Nc1ccccc1O (stereo not drawn) here?
A: inactive: -19%

Q: Which Potency does the source give for Cc1cccc(C(=O)N2CCC(Cc3ccccc3)CC2)c1[N+](=O)[O-] here?
A: active: 0.928 µM

Q: For Cc1cccc(Nc2ncnc3ccc(Br)cc23)c1, which “activity change, negative = inhibition” value is on record?
A: inactive: 0%

Q: For O=C1OC(N2C(=O)CC[C@H]2C(=O)Nc2ccc3c(c2)OCO3)c2ccccc21 (stereo partly drawn), which “activity change, negative = inhibition” value is on record?
A: inactive: 65.9%

Q: Which Potency does the source give for O=C1C(Cc2ccc(O)cc2)NC(=S)N1c1ccccc1 (stereo not drawn) here?
A: inconclusive: 16.5 µM [inhibitor, partial curve, poor fit]

Q: For CCOc1cc(N2CCOCC2)c(OCC)cc1NC(=O)c1cccc(N(C)C)c1, which Potency is on record?
A: inconclusive: 8.28 µM [inhibitor, partial curve]

Q: With CC(C)(C)C(=O)Nc1ccccc1N1CCN(C(=O)c2ccc(Cl)cc2)CC1 as the compound, how does the Potency read?
A: inconclusive: 18.5 µM [inhibitor, single point]

Q: Which “activity change, negative = inhibition” value does the source give for O=C(N/N=C/c1ccc2c(c1)OCO2)c1ccc2c(c1)OCCO2 here?
A: inactive: 77.6%

Q: With O=C(/C=C/c1cccs1)c1cc(Cl)ccc1OC(=O)N1CCOCC1 as the compound, how does the Potency read?
A: active: 8.28 µM

Q: For COc1ccc(S(=O)(=O)N2CCCCC2)cc1NC(=O)CNc1ccccc1C(C)=O, which Potency is on record?
A: inconclusive: 18.5 µM [inhibitor, single point]
